{"source": "patent US20070123556A1", "about": "“Treatment with Sigma Receptor Agonists Post-Stroke” (UNIVERSITY OF SOUTH FLORIDA, priority 2005, published 2007)", "test_system": "rats subjected to MCAO", "conditions": "10 mg/kg daily s.c. at 24, 48, 72 h post MCAO", "note": "Some results were stated once for a whole list of compounds, not compound by compound.", "data": [{"smiles": "CN(C)CCN(C)CCc1ccc(Cl)c(Cl)c1", "note": "[BD-1047, N-[2-(3,4-dichlorophenyl)ethyl]-N-methyl-2-(dimethylamino)ethylamine]", "values": [{"measurement": "survival rate 96 hours post MCAO", "result": "< 25", "unit": "%"}]}]}
